Experimental data published in PMC10055685.
No constants are given. Whether binding was seen depends on the method and setting. In cells and extracts the contact can be indirect. Some binding calls cover weakened binding; strength is not graded here.

Chains of the proteins cited; added tags and fusions are not shown. Lines headed by an entry give the natural chain unless they say otherwise; changes in a name come on top.
UniProt P35240: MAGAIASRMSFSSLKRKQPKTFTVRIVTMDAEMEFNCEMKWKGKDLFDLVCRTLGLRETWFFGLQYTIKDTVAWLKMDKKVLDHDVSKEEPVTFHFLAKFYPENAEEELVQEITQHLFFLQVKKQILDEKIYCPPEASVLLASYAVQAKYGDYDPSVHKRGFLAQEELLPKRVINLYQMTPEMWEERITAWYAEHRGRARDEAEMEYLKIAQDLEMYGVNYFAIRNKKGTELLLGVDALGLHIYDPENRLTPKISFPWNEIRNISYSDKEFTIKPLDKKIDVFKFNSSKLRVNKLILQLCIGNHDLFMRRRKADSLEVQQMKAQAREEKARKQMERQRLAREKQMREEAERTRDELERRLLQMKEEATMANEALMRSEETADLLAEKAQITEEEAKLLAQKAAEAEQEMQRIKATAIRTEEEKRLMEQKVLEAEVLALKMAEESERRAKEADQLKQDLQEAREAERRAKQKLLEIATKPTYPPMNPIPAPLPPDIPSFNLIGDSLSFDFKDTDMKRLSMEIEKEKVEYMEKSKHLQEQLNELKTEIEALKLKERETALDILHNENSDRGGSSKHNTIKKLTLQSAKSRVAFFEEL
UniProt P35222: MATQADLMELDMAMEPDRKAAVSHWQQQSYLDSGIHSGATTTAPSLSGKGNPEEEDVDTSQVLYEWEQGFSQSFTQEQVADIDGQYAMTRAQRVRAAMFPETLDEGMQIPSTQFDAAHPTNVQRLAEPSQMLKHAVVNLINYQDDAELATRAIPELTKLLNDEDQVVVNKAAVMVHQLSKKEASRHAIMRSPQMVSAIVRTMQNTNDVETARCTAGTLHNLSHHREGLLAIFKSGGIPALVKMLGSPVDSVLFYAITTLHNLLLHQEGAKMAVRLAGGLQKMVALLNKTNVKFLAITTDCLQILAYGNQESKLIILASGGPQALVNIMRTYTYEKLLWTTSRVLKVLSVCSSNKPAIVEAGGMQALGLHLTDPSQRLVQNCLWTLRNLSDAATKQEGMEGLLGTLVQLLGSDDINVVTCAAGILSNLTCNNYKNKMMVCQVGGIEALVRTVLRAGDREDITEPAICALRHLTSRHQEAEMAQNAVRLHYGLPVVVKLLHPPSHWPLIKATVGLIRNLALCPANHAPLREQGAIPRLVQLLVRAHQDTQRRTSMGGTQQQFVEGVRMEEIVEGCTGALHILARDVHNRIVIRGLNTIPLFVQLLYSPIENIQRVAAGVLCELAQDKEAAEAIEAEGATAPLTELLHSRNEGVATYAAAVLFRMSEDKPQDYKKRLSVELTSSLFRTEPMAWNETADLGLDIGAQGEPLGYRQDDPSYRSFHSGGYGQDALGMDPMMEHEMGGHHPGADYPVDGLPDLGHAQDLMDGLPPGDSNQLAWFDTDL

Legend:
[1] = biological target: Merlin^FLAG S13A (doxycycline-inducible, used for FLAG immunoprecipitation) (human) (UniProt P35240); experiment: co-IP; FLAG antibody-bound beads with M10G cell lysate (doxycycline-inducible Merlin^FLAG, 1μg/ml), 4°C for 4 hours, 4 washes in lysis buffer; immunoblot for β-catenin
[2] = biological target: Merlin^FLAG S13D (doxycycline-inducible, used for FLAG immunoprecipitation) (human) (UniProt P35240); experiment: as above

**Q.** β-catenin (from UniProt P35222 1-781) was tested. Which binding [1] did it give?
**A.** The binding was “no binding”.

**Q.** And the binding [2]?
**A.** The binding was “binds”.
